The target in test [1] is Myo19–FLAG (UniProt Q96H55). In words: co-IP; anti-FLAG agarose affinity purification from lysates of cells stably expressing Myo19–FLAG (HeLa) or Mtx3–FLAG (Mtx3 KO cells); lysis buffer 150 mM NaCl, 20 mM HEPES pH 7.4, 2 mM MgCl2, 1 mM EGTA, 0.5% Triton X-100, 2 mM ATP; 2 h at 4°C; eluted with FLAG peptide; immunoblot.
In test [2] the target is Myo19–FLAG (UniProt Q96H55). The test is described as follows: co-IP; anti-FLAG agarose affinity purification of Myo19–FLAG from Mtx3 KO cells (absence of Mtx3); eluted with FLAG peptide; immunoblot. On the technique in general: Immunoblotting shows a protein as a band on a membrane.

Protein sequences, listed by entry. Tags and fused reporters are not part of them.
UniProt Q96H55: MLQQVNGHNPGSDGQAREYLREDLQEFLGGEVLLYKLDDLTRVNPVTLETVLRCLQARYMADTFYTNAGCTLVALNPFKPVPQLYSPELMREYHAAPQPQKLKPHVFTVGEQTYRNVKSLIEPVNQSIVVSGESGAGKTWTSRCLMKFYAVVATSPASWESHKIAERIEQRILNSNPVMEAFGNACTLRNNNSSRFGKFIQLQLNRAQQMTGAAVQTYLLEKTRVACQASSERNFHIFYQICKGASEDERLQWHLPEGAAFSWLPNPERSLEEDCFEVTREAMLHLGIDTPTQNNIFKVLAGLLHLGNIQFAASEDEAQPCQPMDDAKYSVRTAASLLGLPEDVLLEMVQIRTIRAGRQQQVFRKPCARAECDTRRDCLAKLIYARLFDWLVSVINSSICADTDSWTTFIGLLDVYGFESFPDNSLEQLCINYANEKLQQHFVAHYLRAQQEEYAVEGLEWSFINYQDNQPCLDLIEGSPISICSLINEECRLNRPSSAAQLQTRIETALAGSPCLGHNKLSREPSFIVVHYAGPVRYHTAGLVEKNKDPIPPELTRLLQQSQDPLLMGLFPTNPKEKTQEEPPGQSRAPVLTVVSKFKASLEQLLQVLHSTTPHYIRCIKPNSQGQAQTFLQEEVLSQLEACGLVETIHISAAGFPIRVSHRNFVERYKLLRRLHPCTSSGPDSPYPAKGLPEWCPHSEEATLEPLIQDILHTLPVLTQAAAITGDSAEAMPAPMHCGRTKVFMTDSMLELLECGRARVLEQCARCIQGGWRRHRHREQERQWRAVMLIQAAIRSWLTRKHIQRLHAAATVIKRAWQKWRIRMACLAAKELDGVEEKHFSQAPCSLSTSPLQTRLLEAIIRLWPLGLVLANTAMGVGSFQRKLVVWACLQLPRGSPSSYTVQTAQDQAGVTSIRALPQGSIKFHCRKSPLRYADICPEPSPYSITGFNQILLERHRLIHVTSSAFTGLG
UniProt Q8IXI2: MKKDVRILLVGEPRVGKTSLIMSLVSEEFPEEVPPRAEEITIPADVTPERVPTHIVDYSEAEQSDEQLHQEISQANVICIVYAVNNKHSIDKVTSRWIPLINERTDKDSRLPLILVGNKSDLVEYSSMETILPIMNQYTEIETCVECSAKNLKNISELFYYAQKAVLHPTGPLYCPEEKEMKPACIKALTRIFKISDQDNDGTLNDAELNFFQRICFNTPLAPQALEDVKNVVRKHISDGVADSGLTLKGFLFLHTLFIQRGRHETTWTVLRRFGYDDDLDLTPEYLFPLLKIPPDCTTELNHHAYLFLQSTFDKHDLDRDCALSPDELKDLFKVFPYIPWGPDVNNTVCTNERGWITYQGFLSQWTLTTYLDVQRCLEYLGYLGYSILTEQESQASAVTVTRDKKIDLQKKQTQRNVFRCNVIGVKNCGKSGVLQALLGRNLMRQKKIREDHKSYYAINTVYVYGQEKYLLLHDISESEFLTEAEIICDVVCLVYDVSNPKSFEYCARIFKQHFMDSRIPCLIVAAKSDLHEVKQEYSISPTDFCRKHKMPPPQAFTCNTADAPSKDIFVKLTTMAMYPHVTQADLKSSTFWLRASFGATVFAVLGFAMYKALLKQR

These are yes or no findings as the source states them, for the method shown. In cells and extracts the contact can be indirect. Some binding calls cover weakened binding; strength is not graded here.

With “Miro1, endogenous (from UniProt Q8IXI2 1-618)”, the binding entry was “binds” in test [1] and “no binding (condition: in Mtx3 KO cells (absence of Mtx3))” in test [2].

These data come from publication PMC11925395.
